Measured values taken from patent US12714754B2, “Delivery of cyclic compound by using carrier” (priority 2018, dated 2026).

Experiment: Host-guest interaction with bacitracin by 1H-NMR
Type: binding
Settings: same manner as Test Example 19

Row | SMILES | host-guest interaction with bacitracin (changes in 1H-NMR chemical shifts)
1 | NNc1nnc(NN)c2ccccc12 [dihydralazine] | intermolecularly interacts with the ring structure of bacitracin
2 | NCCNCCN [DET, diethylenetriamine] | intermolecularly interacts with the ring structure of bacitracin
